Values from PubChem BioAssay AID504804 (Drosophila RNAi Screening Center, 2011)
Test: 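dsRNAs that improve Kc cell survival under doxorubicin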 (primary screen). System: Drosophila Kc cells. Knock-down reagent: long dsRNA against Drosophila genes, 0.5 µg dsRNA per well. Duration: 96 h (48 h knock-down, then 48 h drug). Challenge: doxorubicin 5 µg/ml for 48 h, added 48 h after dsRNA. Read-out: 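Luminescent ATP counts per replicate, not normalised, reflecting viable cells after 48 h dsRNA knock-down followed by 48 h of 5 µg/ml doxorubicin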. Scale: raw ATP luminescence: higher = more viable cells, protection from doxorubicin. Hit rule: 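Active when both duplicate wells lie at least 2 SD above the plate mean and protection is confirmed by rescreening and independent dsRNAs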.
The deposit covers about 19,000 reagents; below is a random part of those with a known target gene and a result. Over the whole deposit, 47 (0.25%) are marked active. 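Signals are raw, not normalised; exact z-scores behind calls not deposited; actives needed confirmation, so some wells reaching 2 SD are inactive.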 Names joined by + are all predicted targets of the reagent. Reagent sequences are not shown.

Depletion of CG12783 [DRSC14538] resulted in: raw ATP luminescence, replicate 1 = 83990; raw ATP luminescence, replicate 2 = 64890; inactive.
With knock-down of Mrp4 [DRSC14931], the record shows raw ATP luminescence, replicate 1 = 62270; raw ATP luminescence, replicate 2 = 58840; inactive.
EMC8-9 [DRSC04380] showed raw ATP luminescence, replicate 1 = 73593; raw ATP luminescence, replicate 2 = 59347; inactive.
After knock-down of CG4995 [DRSC02801], the record shows raw ATP luminescence, replicate 1 = 77383; raw ATP luminescence, replicate 2 = 62203; inactive.
Against Tbp [DRSC04662], the values are raw ATP luminescence, replicate 1 = 58133; raw ATP luminescence, replicate 2 = 48070; inactive.
CG14315 [DRSC14794] showed raw ATP luminescence, replicate 1 = 44120; raw ATP luminescence, replicate 2 = 55810; inactive.
For CG34039 [DRSC09318] the deposit lists raw ATP luminescence, replicate 1 = 72803; raw ATP luminescence, replicate 2 = 72147; inactive.
With knock-down of spz4 [DRSC02410], the screen gave raw ATP luminescence, replicate 1 = 36217; raw ATP luminescence, replicate 2 = 55033; inactive.
With knock-down of CG7856 [DRSC04896] the results were raw ATP luminescence, replicate 1 = 54503; raw ATP luminescence, replicate 2 = 40927; inactive.
RnrS [DRSC07533] gave raw ATP luminescence, replicate 1 = 49313; raw ATP luminescence, replicate 2 = 42853; inactive.

Targets above whose gene name begins with C or c:
CG12783 [DRSC14538] | raw ATP luminescence, replicate 1 = 83990; raw ATP luminescence, replicate 2 = 64890; activity call = inactive
CG4995 [DRSC02801] | raw ATP luminescence, replicate 1 = 77383; raw ATP luminescence, replicate 2 = 62203; activity call = inactive
CG14315 [DRSC14794] | raw ATP luminescence, replicate 1 = 44120; raw ATP luminescence, replicate 2 = 55810; activity call = inactive
CG34039 [DRSC09318] | raw ATP luminescence, replicate 1 = 72803; raw ATP luminescence, replicate 2 = 72147; activity call = inactive
CG7856 [DRSC04896] | raw ATP luminescence, replicate 1 = 54503; raw ATP luminescence, replicate 2 = 40927; activity call = inactive

More results:
Depletion of B52 [DRSC14121] came out at: raw ATP luminescence, replicate 1 = 48507; raw ATP luminescence, replicate 2 = 25483; inactive.
Depletion of Ir40a [DRSC03732] came out at: raw ATP luminescence, replicate 1 = 68187; raw ATP luminescence, replicate 2 = 53867; inactive.
With knock-down of Ir40a [DRSC03733] the results were raw ATP luminescence, replicate 1 = 62523; raw ATP luminescence, replicate 2 = 67343; inactive.
CG11279 [DRSC09837] scored raw ATP luminescence, replicate 1 = 82157; raw ATP luminescence, replicate 2 = 1.10e5; inactive.
With knock-down of mora [DRSC16594], the record shows raw ATP luminescence, replicate 1 = 1.12e5; raw ATP luminescence, replicate 2 = 87610; inactive.
With knock-down of CG10252 [DRSC14221] the results were raw ATP luminescence, replicate 1 = 37620; raw ATP luminescence, replicate 2 = 45413; inactive.
Against Sap30 [DRSC19916] the deposit lists raw ATP luminescence, replicate 1 = 3.26e5; raw ATP luminescence, replicate 2 = 3.13e5; inactive.
With knock-down of CG42516 + Pbp49 [DRSC06073], the record shows raw ATP luminescence, replicate 1 = 73087; raw ATP luminescence, replicate 2 = 63003; inactive.
CG3746 [DRSC04412] showed raw ATP luminescence, replicate 1 = 63717; raw ATP luminescence, replicate 2 = 49720; inactive.
